# Experimental data from the supplement of paper PMC6411743.
# Protein sequences, listed by entry. Tags and fused reporters are not part of them. Lines headed by an entry give the natural chain unless they say otherwise; changes in a name come on top.
# UniProt Q9UBT2: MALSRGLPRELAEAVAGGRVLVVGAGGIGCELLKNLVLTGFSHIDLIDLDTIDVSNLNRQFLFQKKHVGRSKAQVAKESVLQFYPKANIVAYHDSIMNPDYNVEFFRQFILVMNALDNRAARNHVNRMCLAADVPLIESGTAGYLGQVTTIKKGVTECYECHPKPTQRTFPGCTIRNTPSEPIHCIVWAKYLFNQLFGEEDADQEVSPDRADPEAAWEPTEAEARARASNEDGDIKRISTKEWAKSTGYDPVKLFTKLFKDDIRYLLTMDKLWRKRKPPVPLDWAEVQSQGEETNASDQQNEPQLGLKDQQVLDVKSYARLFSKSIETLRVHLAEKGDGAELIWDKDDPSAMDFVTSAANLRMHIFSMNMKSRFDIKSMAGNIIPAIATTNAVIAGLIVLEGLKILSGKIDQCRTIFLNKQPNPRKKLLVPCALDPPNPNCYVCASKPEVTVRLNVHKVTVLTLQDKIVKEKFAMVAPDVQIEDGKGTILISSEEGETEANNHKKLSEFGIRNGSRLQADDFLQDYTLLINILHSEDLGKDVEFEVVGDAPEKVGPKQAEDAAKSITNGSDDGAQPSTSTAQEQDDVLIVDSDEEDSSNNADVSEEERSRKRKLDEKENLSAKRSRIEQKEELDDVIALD
# UniProt Q9NY33: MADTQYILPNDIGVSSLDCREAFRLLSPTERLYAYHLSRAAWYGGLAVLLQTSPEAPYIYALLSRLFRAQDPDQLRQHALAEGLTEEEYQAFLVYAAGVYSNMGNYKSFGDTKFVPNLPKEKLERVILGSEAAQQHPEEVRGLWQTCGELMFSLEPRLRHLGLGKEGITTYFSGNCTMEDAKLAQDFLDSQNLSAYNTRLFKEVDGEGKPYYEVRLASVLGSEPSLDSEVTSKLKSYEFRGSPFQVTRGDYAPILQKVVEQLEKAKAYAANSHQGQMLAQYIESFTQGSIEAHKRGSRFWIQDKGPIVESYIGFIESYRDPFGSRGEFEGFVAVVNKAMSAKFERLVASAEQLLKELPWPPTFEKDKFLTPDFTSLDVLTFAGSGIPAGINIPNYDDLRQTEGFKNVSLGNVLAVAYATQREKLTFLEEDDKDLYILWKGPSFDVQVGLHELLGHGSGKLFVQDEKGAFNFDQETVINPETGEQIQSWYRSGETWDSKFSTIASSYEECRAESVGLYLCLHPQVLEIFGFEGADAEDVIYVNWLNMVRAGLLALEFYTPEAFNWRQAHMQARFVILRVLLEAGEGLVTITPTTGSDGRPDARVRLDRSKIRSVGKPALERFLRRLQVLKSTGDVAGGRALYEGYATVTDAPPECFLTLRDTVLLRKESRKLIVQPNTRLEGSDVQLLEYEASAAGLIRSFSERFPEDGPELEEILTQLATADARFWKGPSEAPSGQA
# UniProt Q9UHR6: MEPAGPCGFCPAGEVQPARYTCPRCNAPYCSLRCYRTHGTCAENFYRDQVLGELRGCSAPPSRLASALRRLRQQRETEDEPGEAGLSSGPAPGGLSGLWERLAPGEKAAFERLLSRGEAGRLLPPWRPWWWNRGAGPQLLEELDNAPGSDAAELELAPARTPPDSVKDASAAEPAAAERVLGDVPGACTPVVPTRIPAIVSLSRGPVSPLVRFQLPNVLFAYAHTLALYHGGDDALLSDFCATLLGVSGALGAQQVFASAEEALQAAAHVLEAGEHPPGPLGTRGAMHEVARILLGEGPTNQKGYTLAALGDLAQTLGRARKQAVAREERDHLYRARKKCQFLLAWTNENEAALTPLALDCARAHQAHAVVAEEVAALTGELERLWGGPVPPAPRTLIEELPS
# UniProt Q9UI12, whole entry: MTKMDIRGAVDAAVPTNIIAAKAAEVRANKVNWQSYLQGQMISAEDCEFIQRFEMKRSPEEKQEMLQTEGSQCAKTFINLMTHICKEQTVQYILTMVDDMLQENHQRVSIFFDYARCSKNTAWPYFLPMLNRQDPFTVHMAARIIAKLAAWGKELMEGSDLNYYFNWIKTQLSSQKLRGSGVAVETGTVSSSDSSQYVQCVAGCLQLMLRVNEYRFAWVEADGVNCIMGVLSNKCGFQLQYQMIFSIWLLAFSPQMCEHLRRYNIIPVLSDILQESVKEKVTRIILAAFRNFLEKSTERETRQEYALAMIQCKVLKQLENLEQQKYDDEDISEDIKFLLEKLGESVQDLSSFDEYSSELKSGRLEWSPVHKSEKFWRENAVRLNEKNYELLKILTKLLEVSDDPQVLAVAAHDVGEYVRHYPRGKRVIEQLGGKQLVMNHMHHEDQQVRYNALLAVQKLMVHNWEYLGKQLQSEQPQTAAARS
# UniProt Q9UDY2: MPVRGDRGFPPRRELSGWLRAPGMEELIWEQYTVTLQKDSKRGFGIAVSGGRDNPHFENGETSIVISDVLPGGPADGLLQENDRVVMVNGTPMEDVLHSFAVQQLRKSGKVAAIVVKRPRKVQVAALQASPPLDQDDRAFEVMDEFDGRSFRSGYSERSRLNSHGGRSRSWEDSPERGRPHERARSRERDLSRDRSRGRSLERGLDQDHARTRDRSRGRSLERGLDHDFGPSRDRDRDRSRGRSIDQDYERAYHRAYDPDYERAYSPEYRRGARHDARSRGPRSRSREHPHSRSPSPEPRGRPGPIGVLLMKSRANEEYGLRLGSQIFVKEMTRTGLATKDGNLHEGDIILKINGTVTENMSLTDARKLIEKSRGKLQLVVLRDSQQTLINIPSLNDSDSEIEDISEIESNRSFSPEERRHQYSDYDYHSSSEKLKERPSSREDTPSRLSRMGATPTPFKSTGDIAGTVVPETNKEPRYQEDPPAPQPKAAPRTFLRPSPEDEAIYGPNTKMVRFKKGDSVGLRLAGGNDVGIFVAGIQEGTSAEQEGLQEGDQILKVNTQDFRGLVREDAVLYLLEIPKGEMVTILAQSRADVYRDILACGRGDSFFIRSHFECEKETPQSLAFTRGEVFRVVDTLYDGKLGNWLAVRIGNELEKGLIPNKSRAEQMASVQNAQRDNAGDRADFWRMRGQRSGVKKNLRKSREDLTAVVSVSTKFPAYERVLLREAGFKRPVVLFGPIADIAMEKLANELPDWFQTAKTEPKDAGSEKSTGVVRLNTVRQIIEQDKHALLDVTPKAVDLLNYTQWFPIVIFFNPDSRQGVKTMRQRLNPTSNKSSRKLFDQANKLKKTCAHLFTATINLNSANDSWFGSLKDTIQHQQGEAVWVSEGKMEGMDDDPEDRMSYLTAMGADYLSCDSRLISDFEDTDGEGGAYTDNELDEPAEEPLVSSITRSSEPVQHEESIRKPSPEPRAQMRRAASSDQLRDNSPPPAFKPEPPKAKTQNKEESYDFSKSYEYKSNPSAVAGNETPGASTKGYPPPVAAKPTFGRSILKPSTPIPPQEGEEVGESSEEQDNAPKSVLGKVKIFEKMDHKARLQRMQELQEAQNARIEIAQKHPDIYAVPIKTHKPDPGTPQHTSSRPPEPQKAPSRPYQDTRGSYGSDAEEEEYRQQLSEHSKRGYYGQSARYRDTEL
# UniProt Q9UGM6: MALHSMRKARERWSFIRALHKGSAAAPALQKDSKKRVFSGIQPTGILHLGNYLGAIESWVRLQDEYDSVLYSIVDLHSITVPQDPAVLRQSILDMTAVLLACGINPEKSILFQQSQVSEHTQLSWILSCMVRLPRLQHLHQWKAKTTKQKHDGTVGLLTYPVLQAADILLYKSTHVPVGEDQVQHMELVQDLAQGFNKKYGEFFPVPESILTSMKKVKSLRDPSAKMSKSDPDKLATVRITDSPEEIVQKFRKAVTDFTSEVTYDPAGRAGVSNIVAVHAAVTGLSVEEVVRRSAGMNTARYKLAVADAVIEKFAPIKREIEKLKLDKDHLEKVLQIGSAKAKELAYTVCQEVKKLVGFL
# UniProt Q9NYL9: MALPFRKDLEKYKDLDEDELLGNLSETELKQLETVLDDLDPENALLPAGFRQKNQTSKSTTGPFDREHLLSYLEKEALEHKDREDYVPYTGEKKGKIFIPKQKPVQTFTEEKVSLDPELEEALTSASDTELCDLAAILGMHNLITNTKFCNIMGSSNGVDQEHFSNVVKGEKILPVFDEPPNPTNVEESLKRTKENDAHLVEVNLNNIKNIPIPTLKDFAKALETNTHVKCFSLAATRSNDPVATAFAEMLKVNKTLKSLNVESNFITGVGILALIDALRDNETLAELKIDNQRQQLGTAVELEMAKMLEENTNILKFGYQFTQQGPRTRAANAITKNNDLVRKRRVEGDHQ
# UniProt Q9NYZ3: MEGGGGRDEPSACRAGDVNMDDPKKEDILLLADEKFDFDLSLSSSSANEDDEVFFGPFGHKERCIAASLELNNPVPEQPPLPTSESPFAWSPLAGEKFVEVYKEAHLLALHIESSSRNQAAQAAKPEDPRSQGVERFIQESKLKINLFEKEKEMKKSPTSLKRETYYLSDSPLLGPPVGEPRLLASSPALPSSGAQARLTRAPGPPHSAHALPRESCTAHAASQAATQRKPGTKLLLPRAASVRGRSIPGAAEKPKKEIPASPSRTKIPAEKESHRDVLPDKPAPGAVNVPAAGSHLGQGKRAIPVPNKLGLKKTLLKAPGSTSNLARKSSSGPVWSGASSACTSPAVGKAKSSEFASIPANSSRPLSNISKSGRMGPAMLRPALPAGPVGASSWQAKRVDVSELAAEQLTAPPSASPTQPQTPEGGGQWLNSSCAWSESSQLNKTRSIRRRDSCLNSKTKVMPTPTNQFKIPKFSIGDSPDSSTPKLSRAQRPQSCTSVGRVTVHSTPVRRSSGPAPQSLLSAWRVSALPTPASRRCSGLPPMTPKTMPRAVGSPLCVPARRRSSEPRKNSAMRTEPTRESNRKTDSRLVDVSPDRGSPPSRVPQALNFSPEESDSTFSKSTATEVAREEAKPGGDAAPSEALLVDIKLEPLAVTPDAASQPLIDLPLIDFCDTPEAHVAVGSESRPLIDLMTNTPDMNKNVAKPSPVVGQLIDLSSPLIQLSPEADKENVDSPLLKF
# UniProt Q9NVR5: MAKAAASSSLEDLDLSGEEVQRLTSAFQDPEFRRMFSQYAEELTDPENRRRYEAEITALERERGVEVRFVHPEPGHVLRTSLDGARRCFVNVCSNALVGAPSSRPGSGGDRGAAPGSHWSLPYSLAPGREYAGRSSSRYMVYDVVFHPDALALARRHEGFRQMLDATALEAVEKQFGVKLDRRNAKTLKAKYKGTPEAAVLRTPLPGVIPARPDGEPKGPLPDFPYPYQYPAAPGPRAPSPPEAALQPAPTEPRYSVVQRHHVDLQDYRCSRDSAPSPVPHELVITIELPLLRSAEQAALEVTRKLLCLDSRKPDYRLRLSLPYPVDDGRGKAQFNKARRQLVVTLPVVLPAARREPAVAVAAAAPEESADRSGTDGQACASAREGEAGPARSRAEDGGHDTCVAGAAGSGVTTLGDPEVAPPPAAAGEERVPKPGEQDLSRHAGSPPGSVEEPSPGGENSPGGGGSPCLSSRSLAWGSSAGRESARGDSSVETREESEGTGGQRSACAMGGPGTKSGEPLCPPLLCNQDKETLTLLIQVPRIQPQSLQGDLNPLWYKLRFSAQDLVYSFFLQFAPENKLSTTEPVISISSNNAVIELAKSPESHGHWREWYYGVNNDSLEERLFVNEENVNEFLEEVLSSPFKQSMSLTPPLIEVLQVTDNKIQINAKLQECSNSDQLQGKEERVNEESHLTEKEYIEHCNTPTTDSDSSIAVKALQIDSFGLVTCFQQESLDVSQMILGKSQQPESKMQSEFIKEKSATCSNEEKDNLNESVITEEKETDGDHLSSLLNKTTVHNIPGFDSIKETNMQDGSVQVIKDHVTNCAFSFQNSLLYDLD
# UniProt Q9UK76: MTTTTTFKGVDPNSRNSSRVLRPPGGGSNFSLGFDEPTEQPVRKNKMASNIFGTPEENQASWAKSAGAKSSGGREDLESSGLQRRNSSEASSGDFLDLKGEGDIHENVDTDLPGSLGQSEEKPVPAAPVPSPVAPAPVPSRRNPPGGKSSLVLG
# UniProt Q9P0B6: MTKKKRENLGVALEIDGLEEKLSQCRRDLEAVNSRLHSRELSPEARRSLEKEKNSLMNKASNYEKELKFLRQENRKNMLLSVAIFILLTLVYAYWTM
# UniProt Q9NVH1: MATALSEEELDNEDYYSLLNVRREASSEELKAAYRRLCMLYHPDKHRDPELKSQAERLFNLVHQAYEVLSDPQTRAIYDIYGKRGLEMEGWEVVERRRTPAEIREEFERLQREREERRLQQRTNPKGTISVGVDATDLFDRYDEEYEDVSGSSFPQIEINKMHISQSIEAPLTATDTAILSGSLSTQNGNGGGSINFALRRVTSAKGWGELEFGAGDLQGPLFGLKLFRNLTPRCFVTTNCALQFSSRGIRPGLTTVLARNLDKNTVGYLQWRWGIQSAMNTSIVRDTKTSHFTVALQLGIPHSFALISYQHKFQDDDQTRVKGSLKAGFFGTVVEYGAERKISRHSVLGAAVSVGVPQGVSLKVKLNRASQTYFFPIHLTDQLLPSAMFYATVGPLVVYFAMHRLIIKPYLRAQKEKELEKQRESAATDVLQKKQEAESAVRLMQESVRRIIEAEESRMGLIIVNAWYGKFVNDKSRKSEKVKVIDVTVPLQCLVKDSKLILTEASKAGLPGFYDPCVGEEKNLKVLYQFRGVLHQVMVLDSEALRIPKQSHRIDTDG
# ± gives the standard deviation of the averaged measurements. The list shows a part of the results.
# Compound: Nc1nc2c(ncn2[C@@H]2O[C@H](COP(=O)(O)OP(=O)(O)OP(=O)(O)O)[C@@H](O)[C@H]2O)c(=O)[nH]1 [guanosine triphosphate]
# Experiment: NP40-soluble protein abundance relative to vehicle (solubility fold change) (ratio); higher = more soluble protein in presence of GTP
# How it was run: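 Values are fold changes against the detergent-processed vehicle, based on vsn-normalised intensities. Jurkat crude lysate was treated at eight concentrations from 0.1 to 10 mM (10 min at room temperature, then 3 min at 37 °C), solubilised with 0.8% NP40 and benzonase, ultracentrifuged and analysed by TMT-labelled LC-MS/MS over three independent experiments.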
Target,NP40-soluble protein abundance (concentration: 0.1mM),NP40-soluble protein abundance (concentration: 0.5mM),NP40-soluble protein abundance (concentration: 1mM),NP40-soluble protein abundance (concentration: 2mM),NP40-soluble protein abundance (concentration: 4mM),NP40-soluble protein abundance (concentration: 6mM),NP40-soluble protein abundance (concentration: 8mM),NP40-soluble protein abundance (concentration: 10mM)
UniProt Q9UBT2 and related entries,0.979 ± 0.01,0.9978 ± 0.0062,0.945 ± 0.019,0.911 ± 0.025,0.911 ± 0.041,0.899 ± 0.027,0.902 ± 0.037,0.87 ± 0.044
DPP3 (UniProt Q9NY33),1 ± 0.02,0.977 ± 0.023,0.921 ± 0.035,0.9018 ± 0.009,0.9 ± 0.021,0.889 ± 0.013,0.853 ± 0.042,0.846 ± 0.063
ZNHIT2 (UniProt Q9UHR6),1.11 ± 0.12,0.997 ± 0.012,0.996 ± 0.029,1.11 ± 0.054,1.106 ± 0.0074,1.1 ± 0.028,1.1 ± 0.074,1.08 ± 0.058
UniProt Q9UI12 and related entries,0.987 ± 0.021,1.01 ± 0.017,0.9996 ± 0.0053,0.99 ± 0.033,1.03 ± 0.048,1 ± 0.036,1.03 ± 0.064,1.02 ± 0.071
UniProt Q9UDY2 and related entries,1.15 ± 0.083,1.02 ± 0.02,1.05 ± 0.051,1.05 ± 0.11,1 ± 0.2,0.9861 ± 0.0071,1.08 ± 0.021,1.04 ± 0.16
WARS2 (UniProt Q9UGM6),1.02 ± 0.056,0.974 ± 0.039,1.06 ± 0.041,1.01 ± 0.018,1.01 ± 0.031,0.979 ± 0.038,1.05 ± 0.03,0.992 ± 0.021
TMOD3 (UniProt Q9NYL9),0.878 ± 0.033,0.855 ± 0.044,1.03 ± 0.039,1.01 ± 0.029,1.02 ± 0.019,1.02 ± 0.026,1 ± 0.048,1.08 ± 0.04
UniProt Q9NZM5,0.985 ± 0.053,0.939 ± 0.14,1.04 ± 0.083,1.03 ± 0.17,1.05 ± 0.16,1.07 ± 0.21,1.18 ± 0.17,1.13 ± 0.093
UniProt Q9NW68-2|Q9NW68-4|Q9NW68,0.882 ± 0.03,0.863 ± 0.061,0.935 ± 0.019,0.929 ± 0.065,0.856 ± 0.064,0.914 ± 0.063,0.874 ± 0.055,0.969 ± 0.022
GTSE1 (UniProt Q9NYZ3),1.06 ± 0.021,1.02 ± 0.033,1.17 ± 0.075,1.12 ± 0.035,1.171 ± 0.0097,1.16 ± 0.049,1.27 ± 0.034,1.29 ± 0.016
UniProt Q9NVR5,0.928 ± 0.076,0.944 ± 0.078,0.923 ± 0.048,0.885 ± 0.16,0.866 ± 0.12,0.931 ± 0.13,0.869 ± 0.086,0.906 ± 0.082
UniProt Q9UK76,1.09 ± 0.044,1.09 ± 0.06,1.08 ± 0.035,0.984 ± 0.15,0.934 ± 0.089,0.947 ± 0.15,1.01 ± 0.091,0.998 ± 0.12
ACAD8 (UniProt Q9UKU7),1.03 ± 0.064,1.02 ± 0.044,0.932 ± 0.011,0.968 ± 0.064,0.96 ± 0.022,0.948 ± 0.037,0.935 ± 0.014,0.905 ± 0.046
UniProt Q9P0B6,0.888 ± 0.038,0.805 ± 0.091,1.05 ± 0.1,1.02 ± 0.19,0.926 ± 0.095,0.853 ± 0.12,0.843 ± 0.12,0.959 ± 0.03
UniProt Q9NVH1 and related entries,1.01 ± 0.016,1 ± 0.032,0.9534 ± 0.0044,0.955 ± 0.047,0.953 ± 0.043,0.941 ± 0.045,0.96 ± 0.046,0.883 ± 0.043

# Single records, from the list above. Order of values: NP40-soluble protein abundance (concentration: 0.1mM)	NP40-soluble protein abundance (concentration: 0.5mM)	NP40-soluble protein abundance (concentration: 1mM)	NP40-soluble protein abundance (concentration: 2mM)	NP40-soluble protein abundance (concentration: 4mM)	NP40-soluble protein abundance (concentration: 6mM)	NP40-soluble protein abundance (concentration: 8mM)	NP40-soluble protein abundance (concentration: 10mM)
# UniProt Q9NW68-2|Q9NW68-4|Q9NW68 reads 0.882 ± 0.03	0.863 ± 0.061	0.935 ± 0.019	0.929 ± 0.065	0.856 ± 0.064	0.914 ± 0.063	0.874 ± 0.055	0.969 ± 0.022
# UniProt Q9NVR5 reads 0.928 ± 0.076	0.944 ± 0.078	0.923 ± 0.048	0.885 ± 0.16	0.866 ± 0.12	0.931 ± 0.13	0.869 ± 0.086	0.906 ± 0.082
